PubChem BioAssay AID1224826 | NIAID, 2016
Purpose: 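Regulators of Tlr4 signalling leading to Tnf-alpha expression in macrophages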 (primary screen). Cell system: RAW264.7 G9 macrophages from mouse bearing reporters for p65 (GFP) and the Tnf promoter (mCherry). Reagents: siRNA pool against mouse genes, 100 nM. Duration: 16 h of LPS stimulation, after 2 days of siRNA transfection. Challenge: bacterial lipopolysaccharide (Salmonella minnesota R595), 10 ng/ml. Detection: 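Nuclear mCherry signal of the Tnf promoter reporter measured by imaging after background removal, scaled to each plate median and turned into robust z-scores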. Scale: Tnf reporter robust z-score: higher = stronger Tnf promoter reporter signal after LPS. Hit rule: 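Called active when robust z-score is at most -1.3, matching the median of the Tlr4 knock-down control, or over 3; control wells and wells with under 50 cells never active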. Calls: active = Tnf reporter clearly lowered or raised; inactive = no clear change in Tnf reporter.
Shown is one part, drawn at random, of about 17,000 reagents tested. About 1,110 of all reagents (6.6%) were called active. 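Active means lowered or raised reporter signal; replicate intensities are raw and not normalised per plate.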 Entries without a mark were called inactive. Further read-outs or replicates are left out here. No sequences are given here.

Against Or6d14, the entry reads Tnf reporter robust z-score -1.17; fewer than 50 cells in well enough cells in well. Notch4 scored Tnf reporter robust z-score -0.19; fewer than 50 cells in well enough cells in well. For Pim2, the values are Tnf reporter robust z-score 0.22; fewer than 50 cells in well enough cells in well. With knock-down of Dclre1a, the record shows Tnf reporter robust z-score 0.13; fewer than 50 cells in well enough cells in well. Silencing of Cldn16 gave: Tnf reporter robust z-score -1.29; fewer than 50 cells in well enough cells in well. For Or1e35 the deposit lists Tnf reporter robust z-score 0.32; fewer than 50 cells in well enough cells in well.

Knock-down of Cldn23 came out at: Tnf reporter robust z-score -0.17; fewer than 50 cells in well enough cells in well. Samd10 scored Tnf reporter robust z-score 2.53; fewer than 50 cells in well enough cells in well. Against Klf13, the values are Tnf reporter robust z-score 0.05; fewer than 50 cells in well enough cells in well. Silencing of Tssk4 resulted in: Tnf reporter robust z-score -0.4; fewer than 50 cells in well enough cells in well. Rec8 gave Tnf reporter robust z-score -0.25; fewer than 50 cells in well enough cells in well. Against Minpp1, the entry reads Tnf reporter robust z-score -0.85; fewer than 50 cells in well enough cells in well.

After knock-down of Amhr2 the results were Tnf reporter robust z-score 1.3; fewer than 50 cells in well enough cells in well. Or4a73 showed Tnf reporter robust z-score 1.48; fewer than 50 cells in well enough cells in well. Silencing of Pth1r resulted in: Tnf reporter robust z-score 0.56; fewer than 50 cells in well enough cells in well. Against Slc9c1 the deposit lists Tnf reporter robust z-score -0.16; fewer than 50 cells in well enough cells in well. Knock-down of Lamc2 resulted in: Tnf reporter robust z-score 1.3; fewer than 50 cells in well enough cells in well. Against Ube2dnl1, the values are Tnf reporter robust z-score 1.27; fewer than 50 cells in well enough cells in well.

Zfy1 showed Tnf reporter robust z-score -0.98; fewer than 50 cells in well enough cells in well. For C1s2, the entry reads Tnf reporter robust z-score 0.2; fewer than 50 cells in well enough cells in well. With knock-down of Cc2d1a the results were Tnf reporter robust z-score -0.04; fewer than 50 cells in well enough cells in well.

Part of the list above, reformatted:
target gene | Tnf reporter robust z-score | fewer than 50 cells in well
Klf13 | 0.05 | enough cells in well
Tssk4 | -0.4 | enough cells in well
